Where a name gives a salt, the structure may show the parent alone. This is one part of the list. The data scatter; read single values as rough.
System: Peyronie's disease tunica albuginea primary fibroblasts
Experiment: inhibition of TGF-beta1-induced alpha-SMA expression (myofibroblast transformation), relative to TGF-beta1-only and untreated controls; higher = stronger inhibition of myofibroblast transformation
Conditions: 10 µM; TGF-beta1 10 ng/mL; 72 h

Structure (SMILES) | inhibition of TGF-beta1-induced alpha-SMA expression
NC(=O)CN1CC(O)CC1=O (configuration not stated) [Oxiracetam] | 4.67%
C[CH2][Hg][S]c1ccccc1C(=O)[O-].[Na+] [Thimerosal] | > 100%
O=C(O[C@H]1C[C@H]2CC[C@@H](C1)[N+]21CCCC1)C(O)(c1ccccc1)c1ccccc1 [Trospium chloride] | 9.45%
COc1ccc(C(=O)N2CCCC2=O)cc1 [Aniracetam] | 22%
CC[C@@H](C(N)=O)N1CCCC1=O [Levetiracetam] | 10.4%
O=C(O)CCCc1ccc(N(CCCl)CCCl)cc1 [Chloroambucil] | -24.5%
Nc1ccncc1 [4-Aminopyridine] | 11.7%
CCC[C@@H]1CC(=O)N([C@@H](CC)C(N)=O)C1 [Brivaracetam] | -8.96%
Cc1ncc(CNC(=O)N(CCCl)N=O)c(N)n1 [Nimustine Hydrochloride] | 8.31%
CCCN1C[C@H](CSC)C[C@@H]2c3cccc4[nH]cc(c34)C[C@H]21 [Pergolide Mesylate] | -1.83%
CC(=O)OC1CN2CCC1CC2 (configuration not stated) [Aceclidine HCl] | 11.6%
C[N+](C)(C)CCCCCCCCCC[N+](C)(C)C [Decamethonium Bromide] | 7.66%
CN1c2ccccc2C(NCCCCCCC(=O)O)c2ccc(Cl)cc2S1(=O)=O (configuration not stated) [Tianeptine sodium] | 4.44%
CN1c2ccccc2C(NCCCCCCC(=O)O)c2ccc(Cl)cc2S1(=O)=O (configuration not stated) [Tianeptine] | 14.8%
NCCc1cc(O)c(O)cc1O [Oxidopamine (hydrobromide)] | 2.85%
Nc1nc(N)nc(NC2CC2)n1 [Cyromazine] | 11.1%
CN1[C@@H]2CC[C@H]1C[C@@H](OC(=O)[C@H](CO)c1ccccc1)C2 [Hyoscyamine] | 39.4%
O=[N+]([O-])O[C@@H]1CO[C@H]2[C@@H]1OC[C@@H]2O [Isosorbide Mononitrate] | 22.8%
N[C@@H](Cc1ccc(N(CCCl)CCCl)cc1)C(=O)O [Melphalan] | 12.6%
CCCCCCC(=O)O[C@H]1CC[C@H]2[C@@H]3CCC4=CC(=O)CC[C@]4(C)[C@H]3CC[C@]12C [Testosterone Enanthate] | 31%
CC(C)N(CCC(C(N)=O)(c1ccccc1)c1ccccn1)C(C)C (configuration not stated) [Disopyramide Phosphate] | 16.2%

Structure (SMILES) | inhibition of TGF-beta1-induced alpha-SMA expression
CC(C)N(CCC(C(N)=O)(c1ccccc1)c1ccccn1)C(C)C (configuration not stated) [Disopyramide] | -13.8%
N=C(N)NN [Aminoguanidine hydrochloride] | -0.985%
COc1ccc(CN2CCNCC2)c(OC)c1OC [Trimetazidine dihydrochloride] | -31.4%
CC[C@H]1CN2CC[C@H]1C[C@@H]2[C@@H](O)c1ccnc2ccc(OC)cc12 [Hydroquinidine] | 28.1%
Cc1cc(O)ccc1Cl [Chlorocresol] | -11.5%
O=c1[nH]c2ccccc2n1CCCN1CCC(n2c(=O)[nH]c3cc(Cl)ccc32)CC1 [Domperidone] | 9.77%
C=CC[C@]1(O)CC[C@H]2[C@@H]3CCC4=CC(=O)CCC4=C3C=C[C@@]21C [Altrenogest] | 32.5%
Cc1ccccc1-n1c(CF)nc2ccc(N)cc2c1=O [Afloqualone] | 12.4%
C/C(=C\c1csc(C)n1)[C@@H]1C[C@@H]2O[C@]2(C)CCC[C@H](C)[C@H](O)[C@@H](C)C(=O)C(C)(C)[C@@H](O)CC(=O)O1 [Patupilone (EPO906, Epothilone B)] | 95.6%
COc1ccc2c(c1)[C@]13CCCC[C@@H]1[C@H](C2)N(C)CC3 [Dextromethorphan hydrobromide hydrate] | 34.1%
Cc1cccc(C(C)c2c[nH]cn2)c1C (configuration not stated) [Medetomidine HCl] | 13.9%
Cc1cccc(C)c1NC1=NCCCS1 [Xylazine HCl] | 1.87%
COc1cc2c(cc1OC)C1CC(=O)C(CC(C)C)CN1CC2 (configuration not stated) [Tetrabenazine (Xenazine)] | -0.369%
CN1C(=O)COc2c(C(=O)NC3CN4CCC3CC4)cc(Cl)cc21 (configuration not stated) [Azasetron HCl] | 13.5%
Clc1ccc(C(OCCN2CCCCC2)c2ccccc2)cc1 (configuration not stated) [Cloperastine hydrochloride] | 20.4%
O=C(O[C@H]1C[N+]2(CCCOc3ccccc3)CCC1CC2)C(O)(c1cccs1)c1cccs1 [Aclidinium Bromide] | 1.88%
NC(=O)CN1CCCC1=O [Piracetam] | 47%
O=P1(NCCCl)OCCCN1CCCl (configuration not stated) [Ifosfamide] | -18.5%
Cc1cccc([C@H](C)c2c[nH]cn2)c1C [Dexmedetomidine] | 13.4%
Cc1cccc([C@H](C)c2c[nH]cn2)c1C [Dexmedetomidine HCl] | 5.84%
C#C[C@]1(O)C=C[C@H]2[C@@H]3CCC4=CC(=O)CC[C@@H]4[C@H]3CC[C@@]21CC [Gestodene] | 11.3%

Structure (SMILES) | inhibition of TGF-beta1-induced alpha-SMA expression
C[N+]12CCC(CC1)C(OC(=O)C(O)(c1ccccc1)c1ccccc1)C2 (configuration not stated) [Clidinium Bromide] | 0.902%
NCCc1c[nH]c2ccc(O)cc12 [Serotonin HCl] | 12.8%
CCC(COC(=O)c1cc(OC)c(OC)c(OC)c1)(c1ccccc1)N(C)C (configuration not stated) [Trimebutine] | -8.71%
CCNC1(c2cccs2)CCCCC1=O (configuration not stated) [Tiletamine Hydrochloride] | 23.1%
CCC1(c2cccc(O)c2)CCCCN(C)C1 (configuration not stated) [Meptazinol HCl] | 18%
CC[C@H]1[C@@H]2C[C@H]3[C@@H]4N(C)c5ccccc5[C@]45C[C@@H]([C@@H]2[C@H]5O)N3[C@@H]1O [Ajmaline] | 6.76%
C[C@@H]1CC[C@H]2[C@@H](C)C(=O)O[C@@H]3O[C@@]4(C)CC[C@@H]1[C@]32OO4 [Artemisinin] | 51.4%
COc1cc2c(cc1OC)[C@@]13CCN4CC5=CCO[C@H]6CC(=O)N2[C@H]1[C@H]6[C@H]5C[C@H]43 [Brucine sulfate salt hydrate] | 8.67%
COC(=O)C1=CCCN(C)C1 [Arecoline HBr] | -5.83%
CC(C)N(CCNC(=O)CN1CCCC1=O)C(C)C [Pramiracetam] | -3.04%
CNCC(=O)c1ccc(O)c(O)c1 [Adrenalone HCl] | 19.3%
C[C@]12CC[C@H]3[C@@H](CC[C@@]45O[C@@H]4C(O)=C(C#N)C[C@]35C)[C@@H]1CC[C@@H]2O [Trilostane] | 24.7%
Oc1cc(Cl)ccc1Oc1ccc(Cl)cc1Cl [Triclosan] | 16.4%
C[C@@H]1O[C@@H](O[C@H]2C[C@@H](O)[C@]3(CO)[C@H]4[C@H](O)C[C@]5(C)[C@@H](C6=CC(=O)OC6)CC[C@]5(O)[C@@H]4CC[C@]3(O)C2)[C@H](O)[C@H](O)[C@H]1O [Ouabain] | > 100%
NCC(O)c1ccc(O)cc1 (racemic) [(+,-)-Octopamine HCl] | 9.91%
C[N+]1(C)[C@@H]2C[C@@H](OC(=O)[C@H](CO)c3ccccc3)C[C@H]1[C@@H]1O[C@@H]12 [Methscopolamine] | 45.9%
CCC1(c2ccc(N)cc2)CCC(=O)NC1=O (configuration not stated) [Aminoglutethimide] | -2.72%
CCN(C)C(=O)Oc1cccc([C@H](C)N(C)C)c1 [Rivastigmine] | 88.2%
CCN(C)C(=O)Oc1cccc([C@H](C)N(C)C)c1 [Rivastigmine Tartrate] | -0.377%
OC(c1ccccc1)(c1ccccc1)C1CCNCC1 [Azacyclonol] | 34.9%
C[N+]1(C)CCCC(OC(=O)C(O)(c2ccccc2)c2ccccc2)C1 (configuration not stated) [Mepenzolate Bromide] | 6.19%

Structure (SMILES) | inhibition of TGF-beta1-induced alpha-SMA expression
COc1ccc(CN(C(=O)[C@@H](N)Cc2c(C)cc(C(N)=O)cc2C)[C@@H](C)c2ncc(-c3ccccc3)[nH]2)cc1C(=O)O [Eluxadoline] | 15%
CCC1(C)CC(=O)NC(=O)C1 [Bemegride] | 17.1%
Oc1ccc(Cl)cc1Cc1cc(Cl)ccc1O [Dichlorophene] | 55.2%
C=CN1CCCC1=O.II [Povidone iodine] | -56.4%
Cn1c(COP(=O)(NCCBr)NCCBr)cnc1[N+](=O)[O-] [Evofosfamide (TH-302)] | 22.2%
CC(=O)NC1CCSC1=O (configuration not stated) [Citiolone] | 7.21%
O=P1(N(CCCl)CCCl)NCCCO1 (configuration not stated) [Cyclophosphamide Monohydrate] | 3.03%
CN1C(=O)CCS(=O)(=O)C1c1ccc(Cl)cc1 (configuration not stated) [Chlormezanone] | 27.5%
O.O.O.O=C([O-])C1[O][Sb]2[O]C(=O)C([O]2)C(C(=O)[O-])[O][Sb]2[O]C(=O)C1[O]2.[K+].[K+] (configuration not stated) [Antimonyl potassium tartrate trihydrate] | 28.9%
CCCCCCCCCCCCCCCC[n+]1ccccc1 [Cetylpyridinium Chloride] | > 100%
C=C1C[C@@H]2[C@H](CC[C@]3(C)C(=O)CC[C@@H]23)[C@@]2(C)C=CC(=O)C=C12 [Exemestane] | 37.6%
CNC(C)Cc1ccccc1OC (configuration not stated) [Methoxyphenamine Hydrochloride] | -8.16%
CCN(CC)CCOC(=O)C(O)(c1ccccc1)c1ccccc1 [Benactyzine hydrochloride] | -10.3%
CN(C)C(=O)Oc1cccc([N+](C)(C)C)c1 [Neostigmine Bromide] | -21.6%
COc1ccc(C(CN(C)C)C2(O)CCCCC2)cc1 (configuration not stated) [Venlafaxine] | 6.56%
COc1ccc(C(CN(C)C)C2(O)CCCCC2)cc1 (configuration not stated) [Venlafaxine HCl] | 24.7%
C[C@]12CCC(=O)C(O)=C1CC[C@@H]1[C@@H]2CC[C@]2(C)C(=O)CC[C@@H]12 [Formestane] | -16.5%
CN1[C@@H]2CC[C@H]1C[C@@H](OC(=O)C(CO)c1ccccc1)C2 (some centres not stated) [Atropine sulfate monohydrate] | 12.4%
CN1[C@@H]2CC[C@H]1C[C@@H](OC(=O)C(CO)c1ccccc1)C2 (some centres not stated) [Atropine sulfate] | 8.96%

An excerpt from the list above:
Structure (SMILES) | inhibition of TGF-beta1-induced alpha-SMA expression
CN1c2ccccc2C(NCCCCCCC(=O)O)c2ccc(Cl)cc2S1(=O)=O (configuration not stated) [Tianeptine sodium] | 4.44%
CN1c2ccccc2C(NCCCCCCC(=O)O)c2ccc(Cl)cc2S1(=O)=O (configuration not stated) [Tianeptine] | 14.8%
NCCc1cc(O)c(O)cc1O [Oxidopamine (hydrobromide)] | 2.85%
Nc1nc(N)nc(NC2CC2)n1 [Cyromazine] | 11.1%
CN1[C@@H]2CC[C@H]1C[C@@H](OC(=O)[C@H](CO)c1ccccc1)C2 [Hyoscyamine] | 39.4%
O=[N+]([O-])O[C@@H]1CO[C@H]2[C@@H]1OC[C@@H]2O [Isosorbide Mononitrate] | 22.8%
N[C@@H](Cc1ccc(N(CCCl)CCCl)cc1)C(=O)O [Melphalan] | 12.6%
CCCCCCC(=O)O[C@H]1CC[C@H]2[C@@H]3CCC4=CC(=O)CC[C@]4(C)[C@H]3CC[C@]12C [Testosterone Enanthate] | 31%
CC(C)N(CCC(C(N)=O)(c1ccccc1)c1ccccn1)C(C)C (configuration not stated) [Disopyramide Phosphate] | 16.2%
CC(C)N(CCC(C(N)=O)(c1ccccc1)c1ccccn1)C(C)C (configuration not stated) [Disopyramide] | -13.8%
N=C(N)NN [Aminoguanidine hydrochloride] | -0.985%
COc1ccc(CN2CCNCC2)c(OC)c1OC [Trimetazidine dihydrochloride] | -31.4%
CC[C@H]1CN2CC[C@H]1C[C@@H]2[C@@H](O)c1ccnc2ccc(OC)cc12 [Hydroquinidine] | 28.1%
Cc1cc(O)ccc1Cl [Chlorocresol] | -11.5%
O=c1[nH]c2ccccc2n1CCCN1CCC(n2c(=O)[nH]c3cc(Cl)ccc32)CC1 [Domperidone] | 9.77%
C=CC[C@]1(O)CC[C@H]2[C@@H]3CCC4=CC(=O)CCC4=C3C=C[C@@]21C [Altrenogest] | 32.5%

From the supplement of paper PMC9744312
